The record followed here is US7645738B2 (Bayer Animal Health GmbH, priority 2003, dated 2010).

The data set is described as follows: general procedure: solution-phase peptide synthesis; BOP-Cl / DIEA. The following applies: for step yield: late stage modification step.

For “Cyclo(-N-methyl-L-alanyl-D-lactyl-N-methyl-L-isoleucyl-D-4-morpholino-phenyllactyl-N-methyl-L-isoleucyl-D-lactyl-)”, the step yield was 27.7% of theory.

As to “Cyclo(-N-methyl-L-alanyl-D-lactyl-N-methyl-L-isoleucyl-D-phenyllactyl-N-methyl-L-isoleucyl-D-lactyl-)”, for the setting “cyclisation step, on linear precursor”, the cyclisation yield was 64.7% of theory.

In the case of “Cyclo(-N-methyl-L-alanyl-D-lactyl-N-methyl-L-isoleucyl-D-4-(2-hydroxyethyl-sulphonyl-ethylamino-phenyl)lactyl-N-methyl-L-isoleucyl-D-lactyl-)”, the step yield is 24.8% of theory.
